# This is one part of the list.
# Protein sequences, listed by entry. Tags and fused reporters are not part of them. Lines headed by an entry give the natural chain unless they say otherwise; changes in a name come on top.
# UniProt Q8WUA2: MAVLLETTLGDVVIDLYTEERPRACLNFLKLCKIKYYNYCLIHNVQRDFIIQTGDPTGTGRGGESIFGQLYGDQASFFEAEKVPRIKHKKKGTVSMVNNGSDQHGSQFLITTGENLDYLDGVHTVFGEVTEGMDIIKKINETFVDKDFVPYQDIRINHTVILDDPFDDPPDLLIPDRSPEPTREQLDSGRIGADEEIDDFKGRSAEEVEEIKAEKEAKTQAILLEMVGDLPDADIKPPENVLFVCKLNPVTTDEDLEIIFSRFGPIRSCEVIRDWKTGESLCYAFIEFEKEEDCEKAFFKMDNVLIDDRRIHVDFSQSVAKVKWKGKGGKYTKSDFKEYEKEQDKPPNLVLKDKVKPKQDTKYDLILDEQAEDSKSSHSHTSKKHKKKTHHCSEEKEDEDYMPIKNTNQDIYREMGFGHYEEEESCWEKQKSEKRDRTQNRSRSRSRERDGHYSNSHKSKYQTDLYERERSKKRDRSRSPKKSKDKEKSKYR
# UniProt P28340: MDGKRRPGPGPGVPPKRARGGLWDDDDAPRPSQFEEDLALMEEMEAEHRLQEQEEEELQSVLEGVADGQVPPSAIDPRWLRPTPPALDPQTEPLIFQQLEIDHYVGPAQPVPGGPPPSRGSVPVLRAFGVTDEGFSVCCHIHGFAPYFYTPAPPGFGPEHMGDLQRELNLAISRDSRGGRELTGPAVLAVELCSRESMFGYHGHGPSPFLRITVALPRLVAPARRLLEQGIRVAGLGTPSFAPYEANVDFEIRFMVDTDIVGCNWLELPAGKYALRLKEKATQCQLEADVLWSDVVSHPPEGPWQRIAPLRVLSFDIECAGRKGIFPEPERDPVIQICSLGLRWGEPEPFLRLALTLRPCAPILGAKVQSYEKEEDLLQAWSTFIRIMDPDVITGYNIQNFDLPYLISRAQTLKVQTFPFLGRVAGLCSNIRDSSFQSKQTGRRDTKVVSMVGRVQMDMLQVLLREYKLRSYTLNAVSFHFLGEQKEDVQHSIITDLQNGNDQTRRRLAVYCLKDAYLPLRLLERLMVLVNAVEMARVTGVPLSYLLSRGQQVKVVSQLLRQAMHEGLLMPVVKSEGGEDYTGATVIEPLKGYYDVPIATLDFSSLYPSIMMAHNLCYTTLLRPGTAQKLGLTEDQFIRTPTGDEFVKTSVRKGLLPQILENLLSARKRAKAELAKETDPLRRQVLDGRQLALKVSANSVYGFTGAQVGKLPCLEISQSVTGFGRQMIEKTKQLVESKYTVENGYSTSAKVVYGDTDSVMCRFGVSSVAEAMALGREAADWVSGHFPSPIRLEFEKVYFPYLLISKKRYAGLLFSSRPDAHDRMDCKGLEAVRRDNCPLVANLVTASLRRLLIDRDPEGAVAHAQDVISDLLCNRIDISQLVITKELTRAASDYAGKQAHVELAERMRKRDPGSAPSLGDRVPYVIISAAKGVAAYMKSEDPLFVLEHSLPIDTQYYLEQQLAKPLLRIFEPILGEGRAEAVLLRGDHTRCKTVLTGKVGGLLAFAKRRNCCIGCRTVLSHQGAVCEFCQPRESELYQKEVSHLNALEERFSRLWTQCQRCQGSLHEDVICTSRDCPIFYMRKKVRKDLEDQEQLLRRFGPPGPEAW
# UniProt P49005: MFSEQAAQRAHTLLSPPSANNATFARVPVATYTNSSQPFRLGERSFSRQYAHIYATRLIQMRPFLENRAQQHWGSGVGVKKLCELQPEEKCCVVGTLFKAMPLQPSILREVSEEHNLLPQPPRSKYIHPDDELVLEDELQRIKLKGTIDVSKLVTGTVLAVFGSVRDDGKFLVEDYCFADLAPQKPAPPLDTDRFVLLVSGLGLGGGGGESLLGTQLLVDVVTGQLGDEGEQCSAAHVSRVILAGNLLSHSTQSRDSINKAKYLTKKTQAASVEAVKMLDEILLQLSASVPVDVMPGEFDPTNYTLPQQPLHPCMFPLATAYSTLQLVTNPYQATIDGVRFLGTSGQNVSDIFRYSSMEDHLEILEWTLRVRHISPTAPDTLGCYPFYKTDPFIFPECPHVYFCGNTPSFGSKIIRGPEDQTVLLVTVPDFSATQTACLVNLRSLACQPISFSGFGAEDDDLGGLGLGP
# UniProt Q9BUI4: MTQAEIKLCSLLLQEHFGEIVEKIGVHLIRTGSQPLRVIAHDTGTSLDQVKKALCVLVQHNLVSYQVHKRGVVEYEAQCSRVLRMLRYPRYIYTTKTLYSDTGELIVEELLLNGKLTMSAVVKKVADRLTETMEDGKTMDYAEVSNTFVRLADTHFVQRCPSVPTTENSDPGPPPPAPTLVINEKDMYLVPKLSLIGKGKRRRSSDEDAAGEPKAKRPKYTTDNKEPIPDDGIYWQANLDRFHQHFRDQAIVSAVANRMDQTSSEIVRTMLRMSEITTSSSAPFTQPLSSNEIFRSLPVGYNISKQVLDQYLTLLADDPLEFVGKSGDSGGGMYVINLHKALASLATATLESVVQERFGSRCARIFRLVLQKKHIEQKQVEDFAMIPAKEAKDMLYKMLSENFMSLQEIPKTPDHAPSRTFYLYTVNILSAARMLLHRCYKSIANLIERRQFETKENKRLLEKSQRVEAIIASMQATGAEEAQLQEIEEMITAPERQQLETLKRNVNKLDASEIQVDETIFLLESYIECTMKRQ
# UniProt O43447: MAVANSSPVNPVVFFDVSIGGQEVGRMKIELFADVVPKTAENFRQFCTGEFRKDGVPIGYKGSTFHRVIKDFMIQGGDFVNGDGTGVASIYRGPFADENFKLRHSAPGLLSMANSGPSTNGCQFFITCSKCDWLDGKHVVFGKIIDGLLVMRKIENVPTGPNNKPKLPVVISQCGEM
# UniProt Q8IY26: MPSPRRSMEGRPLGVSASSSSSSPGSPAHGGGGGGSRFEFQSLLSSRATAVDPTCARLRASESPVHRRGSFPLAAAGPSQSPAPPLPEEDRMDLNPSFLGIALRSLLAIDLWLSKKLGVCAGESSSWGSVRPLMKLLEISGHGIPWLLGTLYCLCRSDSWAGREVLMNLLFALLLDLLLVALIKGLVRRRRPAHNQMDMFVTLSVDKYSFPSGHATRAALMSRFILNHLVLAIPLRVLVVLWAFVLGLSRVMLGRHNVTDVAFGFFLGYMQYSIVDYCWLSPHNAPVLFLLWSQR
# UniProt P05423: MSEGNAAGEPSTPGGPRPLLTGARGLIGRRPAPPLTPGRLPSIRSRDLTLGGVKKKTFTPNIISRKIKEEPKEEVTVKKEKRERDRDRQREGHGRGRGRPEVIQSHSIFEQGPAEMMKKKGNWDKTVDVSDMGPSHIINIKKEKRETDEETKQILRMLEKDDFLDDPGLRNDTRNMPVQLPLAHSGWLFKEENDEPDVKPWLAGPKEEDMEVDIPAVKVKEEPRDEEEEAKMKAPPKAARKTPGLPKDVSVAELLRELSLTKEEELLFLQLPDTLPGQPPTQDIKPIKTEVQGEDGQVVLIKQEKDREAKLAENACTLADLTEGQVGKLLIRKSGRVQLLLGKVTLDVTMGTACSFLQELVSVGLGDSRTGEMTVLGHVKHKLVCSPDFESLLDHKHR
# UniProt O15031: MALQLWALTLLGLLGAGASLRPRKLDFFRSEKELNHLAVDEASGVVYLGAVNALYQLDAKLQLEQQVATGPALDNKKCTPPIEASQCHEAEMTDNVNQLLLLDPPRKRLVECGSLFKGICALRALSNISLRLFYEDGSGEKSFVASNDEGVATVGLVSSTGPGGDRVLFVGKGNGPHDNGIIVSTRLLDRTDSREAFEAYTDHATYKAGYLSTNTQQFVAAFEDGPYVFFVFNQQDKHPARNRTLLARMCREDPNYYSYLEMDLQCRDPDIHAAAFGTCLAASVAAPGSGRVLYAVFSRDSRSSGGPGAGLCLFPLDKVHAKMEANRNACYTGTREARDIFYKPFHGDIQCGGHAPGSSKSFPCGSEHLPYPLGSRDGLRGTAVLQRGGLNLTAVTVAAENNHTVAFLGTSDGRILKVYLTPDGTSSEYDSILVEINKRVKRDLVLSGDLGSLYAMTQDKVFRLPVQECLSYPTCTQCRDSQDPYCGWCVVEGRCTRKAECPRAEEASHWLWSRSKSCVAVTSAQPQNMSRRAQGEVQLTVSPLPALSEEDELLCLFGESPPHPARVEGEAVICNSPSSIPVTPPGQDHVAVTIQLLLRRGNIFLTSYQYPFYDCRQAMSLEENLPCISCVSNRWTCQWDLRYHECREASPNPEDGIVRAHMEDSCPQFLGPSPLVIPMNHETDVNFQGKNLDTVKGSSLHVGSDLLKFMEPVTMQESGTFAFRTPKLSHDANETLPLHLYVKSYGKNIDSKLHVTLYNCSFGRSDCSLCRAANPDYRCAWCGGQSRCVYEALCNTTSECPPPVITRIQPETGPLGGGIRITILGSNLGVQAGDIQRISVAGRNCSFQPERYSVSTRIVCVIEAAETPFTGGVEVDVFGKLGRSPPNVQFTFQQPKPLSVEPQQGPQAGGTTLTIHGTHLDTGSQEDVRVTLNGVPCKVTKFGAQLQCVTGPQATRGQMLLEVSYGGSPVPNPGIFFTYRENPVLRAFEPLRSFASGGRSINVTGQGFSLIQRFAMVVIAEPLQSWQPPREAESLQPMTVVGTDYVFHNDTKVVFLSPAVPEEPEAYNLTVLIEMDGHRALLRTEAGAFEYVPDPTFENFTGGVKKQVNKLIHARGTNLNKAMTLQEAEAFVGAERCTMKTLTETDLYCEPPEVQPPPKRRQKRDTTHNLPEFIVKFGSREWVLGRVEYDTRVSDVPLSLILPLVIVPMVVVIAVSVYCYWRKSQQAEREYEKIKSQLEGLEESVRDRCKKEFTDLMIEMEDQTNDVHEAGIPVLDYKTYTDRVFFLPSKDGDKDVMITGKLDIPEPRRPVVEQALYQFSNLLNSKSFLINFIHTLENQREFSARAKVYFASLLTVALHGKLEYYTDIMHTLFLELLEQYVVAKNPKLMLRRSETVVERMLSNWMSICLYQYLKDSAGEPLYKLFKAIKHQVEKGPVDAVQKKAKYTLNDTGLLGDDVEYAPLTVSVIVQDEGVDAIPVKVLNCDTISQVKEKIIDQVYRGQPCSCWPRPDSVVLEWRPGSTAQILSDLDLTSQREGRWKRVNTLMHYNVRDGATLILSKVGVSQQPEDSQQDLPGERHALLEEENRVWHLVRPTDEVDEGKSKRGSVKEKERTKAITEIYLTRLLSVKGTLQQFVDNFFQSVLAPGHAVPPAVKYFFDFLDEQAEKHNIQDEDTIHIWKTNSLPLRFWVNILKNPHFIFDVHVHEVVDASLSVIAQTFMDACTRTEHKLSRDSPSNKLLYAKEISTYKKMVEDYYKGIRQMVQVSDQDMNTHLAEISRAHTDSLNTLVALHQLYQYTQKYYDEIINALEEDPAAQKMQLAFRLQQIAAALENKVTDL
# UniProt Q9Y2G5: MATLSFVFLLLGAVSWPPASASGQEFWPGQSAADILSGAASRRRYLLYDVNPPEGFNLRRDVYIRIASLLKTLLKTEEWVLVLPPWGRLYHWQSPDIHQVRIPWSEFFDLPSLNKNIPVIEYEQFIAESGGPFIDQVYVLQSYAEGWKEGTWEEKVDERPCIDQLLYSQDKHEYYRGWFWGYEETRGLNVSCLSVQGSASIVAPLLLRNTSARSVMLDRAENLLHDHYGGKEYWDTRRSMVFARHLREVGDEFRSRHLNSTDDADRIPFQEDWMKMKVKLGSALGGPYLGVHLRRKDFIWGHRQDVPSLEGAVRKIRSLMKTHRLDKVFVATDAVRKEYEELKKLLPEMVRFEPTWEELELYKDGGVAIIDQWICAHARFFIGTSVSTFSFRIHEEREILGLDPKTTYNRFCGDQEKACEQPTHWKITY
# UniProt O15162: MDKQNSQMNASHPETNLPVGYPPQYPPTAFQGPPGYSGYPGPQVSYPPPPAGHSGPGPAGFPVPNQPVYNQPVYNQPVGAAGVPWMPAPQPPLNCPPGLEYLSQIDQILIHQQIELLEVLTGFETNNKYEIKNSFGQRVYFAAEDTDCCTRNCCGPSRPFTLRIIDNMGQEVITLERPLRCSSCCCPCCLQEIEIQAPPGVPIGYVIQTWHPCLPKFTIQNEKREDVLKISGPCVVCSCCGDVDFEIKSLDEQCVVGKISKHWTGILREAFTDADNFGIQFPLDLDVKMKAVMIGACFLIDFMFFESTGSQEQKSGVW
# UniProt O75439: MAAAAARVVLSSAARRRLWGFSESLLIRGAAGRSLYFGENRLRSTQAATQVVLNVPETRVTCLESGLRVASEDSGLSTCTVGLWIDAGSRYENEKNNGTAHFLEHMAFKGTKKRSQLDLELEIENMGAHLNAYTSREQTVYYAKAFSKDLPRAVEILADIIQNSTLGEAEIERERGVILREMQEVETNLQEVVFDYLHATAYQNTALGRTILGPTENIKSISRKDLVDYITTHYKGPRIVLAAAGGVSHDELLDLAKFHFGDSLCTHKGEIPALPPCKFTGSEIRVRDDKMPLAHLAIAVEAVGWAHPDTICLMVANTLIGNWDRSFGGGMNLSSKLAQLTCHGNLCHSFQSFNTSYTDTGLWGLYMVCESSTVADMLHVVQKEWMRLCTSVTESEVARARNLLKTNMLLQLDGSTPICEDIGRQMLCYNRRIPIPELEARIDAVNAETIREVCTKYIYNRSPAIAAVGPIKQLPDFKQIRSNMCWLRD
# Experiments:
# Experiment in all cases: log2 fold change, soluble protein after heating vs DMSO (PISA); higher = thermal stabilisation; K562 cells, 10 uM, 30 min; active = over 0.2 and 3.5 SD of the protein, either way, in both replicates (recomputed)
# [1] = compound: Cc1ccc(NC(=O)c2ccc(CN3CC[C@H](N(C)C)C3)c(C(F)(F)F)c2)cc1Nc1nccc(-c2cncnc2)n1 [bafetinib]
# Outline: (§1)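 K562 cells (2×10^6 cells/mL) were treated with 10 μM compound for 30 min, and aliquots were heated for 3 min over 48°C-58°C. Pooled aliquots were extracted in PBS with 0.5% NP-40 at 4°C, and the supernatant after 21,000xg for 90 min was measured by TMTpro 16plex LC-MS/MS with channel sums equalised. Reported thermal stability, relative to control samples and from duplicates, is a log2 fold change.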
# [2] = compound: Cc1cccc(CC(=O)N2CCc3c2ccc(-c2cn(C)c4ncnc(N)c24)c3F)n1
# Outline: as §1
# [3] = compound: Cc1cn(-c2cc(NC(=O)c3ccc(C)c(Nc4nccc(-c5cccnc5)n4)c3)cc(C(F)(F)F)c2)cn1 [nilotinib]
# Outline: as §1
# [4] = compound: Cc1nc(Nc2n[nH]c3c2CN(C(=O)N[C@H](CN(C)C)c2ccccc2)C3(C)C)c2sccc2n1
# Outline: as §1
# [5] = compound: Cc1nc(Nc2ncc(C(=O)Nc3c(C)cccc3Cl)s2)cc(N2CCN(CCO)CC2)n1 [dasatinib]
# Outline: as §1
# [6] = compound: Cc1ncc(-c2ccnc(Nc3ccc(S(C)(=O)=O)cc3)n2)n1C(C)C
# Outline: as §1
# [7] = compound: Cn1cc(-c2ccc3c(c2)CCN3C(=O)Cc2cccc(C(F)(F)F)c2)c2c(N)ncnc21
# Outline: as §1
# [8] = compound: Cn1cc(-c2ccc3nnc(C(F)(F)c4ccc5ncccc5c4)n3n2)cn1
# Outline: as §1
# [9] = compound: Cn1cncc1[C@@](N)(c1ccc(Cl)cc1)c1ccc2c(c1)c(-c1cccc(Cl)c1)cc(=O)n2C [tipifarnib]
# Outline: as §1
# [10] = compound: FC(F)(F)c1ccc(/C=C/c2nc(COc3ccc(CCCCn4ccnn4)cc3)co2)cc1 [mubritinib]
# Outline: as §1
Target,log2 fold change [1],log2 fold change [2],log2 fold change [3],log2 fold change [4],log2 fold change [5],log2 fold change [6],log2 fold change [7],log2 fold change [8],log2 fold change [9],log2 fold change [10]
PPIL4 (UniProt Q8WUA2),inactive: -0.001,inactive: 0.002,inactive: 0.002,active: -0.483,inactive: -0.065,inactive: -0.113,inactive: -0.031,inactive: -0.018,inactive: -0.01,inactive: 0.005
PNKD isoform 2 (UniProt Q8N490),inactive: -0.05,inactive: -0.038,inactive: -0.011,inactive: -0.01,inactive: -0.065,inactive: -0.003,inactive: 0.017,inactive: 0.152,inactive: 0.041,inactive: 0.014
PPA1 (UniProt Q15181),inactive: 0.033,inactive: 0.01,inactive: 0.028,inactive: 0.067,inactive: -0.009,inactive: -0.001,inactive: 0.038,inactive: -0.003,inactive: -0.09,inactive: 0.02
POLD1 (UniProt P28340),inactive: -0.055,inactive: 0.023,inactive: -0.03,inactive: -0.006,inactive: -0.049,inactive: -0.052,inactive: 0.063,inactive: 0.01,inactive: -0.066,inactive: 0.006
POLD2 (UniProt P49005),inactive: -0.062,inactive: 0.059,inactive: -0.054,inactive: 0.008,inactive: -0.046,inactive: -0.067,inactive: 0.051,inactive: -0.028,inactive: -0.033,inactive: 0.011
POLR3C (UniProt Q9BUI4),inactive: -0.049,inactive: -0.037,inactive: 0,inactive: -0.012,inactive: -0.019,inactive: -0.027,inactive: 0.036,inactive: 0.051,inactive: -0.009,inactive: 0.018
POLE3 (UniProt Q9NRF9),inactive: 0.023,inactive: 0,inactive: -0.013,inactive: -0.035,inactive: -0.014,inactive: -0.023,inactive: -0.021,inactive: 0.024,inactive: 0.018,inactive: 0.044
PPIH (UniProt O43447),inactive: 0.009,inactive: 0.018,inactive: -0.019,inactive: -0.019,inactive: -0.027,inactive: -0.006,inactive: 0.01,inactive: 0.058,inactive: -0.052,inactive: 0.021
POGLUT1 (UniProt Q8NBL1),inactive: 0.009,inactive: 0.122,inactive: -0.001,inactive: 0.03,inactive: 0.024,inactive: -0.049,inactive: -0.022,inactive: -0.073,inactive: 0.048,inactive: -0.046
PLPBP (UniProt O94903),inactive: 0.053,inactive: -0.08,inactive: 0.158,inactive: -0.228,inactive: -0.111,inactive: 0.003,inactive: -0.135,inactive: 0.004,inactive: 0.055,inactive: -0.034
POLR2K (UniProt P53803),inactive: -0.052,inactive: -0.057,inactive: -0.021,inactive: 0.029,inactive: 0.081,inactive: 0.089,inactive: 0.006,inactive: 0.019,inactive: -0.036,inactive: -0.008
PLPP6 (UniProt Q8IY26),inactive: 0.015,inactive: 0.054,inactive: 0,inactive: 0.085,inactive: 0.076,inactive: -0.188,inactive: -0.197,inactive: -0.015,inactive: -0.287,inactive: -0.017
POU2F1 isoform 6 (UniProt P14859),inactive: 0.026,inactive: 0.11,inactive: -0.079,inactive: -0.048,inactive: -0.204,inactive: 0.06,inactive: 0.002,inactive: -0.005,inactive: -0.028,inactive: 0.088
POLD3 (UniProt Q15054),inactive: 0.846,inactive: 0.058,inactive: -0.014,inactive: -0.052,inactive: -0.068,inactive: 0.096,inactive: 0.028,inactive: 0.044,inactive: -0.01,inactive: 0.024
POLR3D (UniProt P05423),inactive: -0.052,inactive: 0.044,inactive: 0.023,inactive: -0.125,inactive: 1.17,inactive: 0.057,inactive: -0.082,inactive: 0.046,inactive: 0.018,inactive: -0.072
PLXNB2 (UniProt O15031),inactive: -0.019,inactive: 0.005,inactive: 0.001,inactive: -0.048,inactive: -0.046,inactive: -0.018,inactive: 0.063,inactive: -0.036,inactive: -0.028,inactive: 0.072
POMP (UniProt Q9Y244),inactive: -0.097,inactive: -0.101,inactive: 0.142,inactive: -0.093,inactive: 0.006,inactive: -0.092,inactive: 0.079,inactive: 0.156,inactive: 0.116,inactive: 0.01
PPFIA2 (UniProt O75334),inactive: -0.085,inactive: -0.082,inactive: -0.077,inactive: 0,inactive: -0.032,inactive: -0.139,inactive: -0.067,inactive: -0.086,inactive: -0.091,inactive: 0.148
POFUT2 (UniProt Q9Y2G5),inactive: 0.007,inactive: -0.007,inactive: -0.039,inactive: 0.055,inactive: 0.137,inactive: -0.024,inactive: -0.033,inactive: 0.031,inactive: 0.05,inactive: -0.057
PLVAP (UniProt Q9BX97),inactive: 0.218,inactive: -0.096,inactive: 0.038,inactive: 0.083,inactive: 0.057,inactive: 0.023,inactive: 0.174,inactive: 0.29,inactive: 0.046,inactive: -0.145
PNISR (UniProt Q8TF01),inactive: -0.085,inactive: -0.058,inactive: 0,inactive: -0.204,inactive: 0.03,inactive: -0.017,inactive: 0.017,inactive: -0.002,inactive: -0.006,inactive: -0.013
POMK (UniProt Q9H5K3),inactive: -0.057,inactive: 0.067,inactive: -0.032,inactive: -0.029,inactive: -0.05,inactive: 0.016,inactive: 0,inactive: 0.034,inactive: -0.044,inactive: -0.126
POFUT1 (UniProt Q9H488),inactive: -0.023,inactive: 0,inactive: 0.039,inactive: 0.016,inactive: 0.049,inactive: -0.008,inactive: -0.068,inactive: -0.065,inactive: 0.049,inactive: -0.017
POP5 (UniProt Q969H6),inactive: -0.016,inactive: -0.017,inactive: 0.006,inactive: -0.089,inactive: -0.002,inactive: 0.045,inactive: -0.032,inactive: -0.017,inactive: 0.02,inactive: 0.052
PMM2 (UniProt O15305),inactive: -0.098,inactive: 0.003,active: -0.291,inactive: -0.054,inactive: -0.018,inactive: -0.015,inactive: 0.035,inactive: 0.013,inactive: 0.018,inactive: 0.028
PLSCR1 (UniProt O15162),inactive: 0.011,inactive: 0.002,inactive: -0.004,inactive: -0.022,inactive: 0.052,inactive: -0.032,inactive: 0.024,inactive: 0.048,inactive: 0.036,inactive: 0.148
PPA2 (UniProt Q9H2U2),inactive: 0.004,inactive: -0.009,inactive: -0.016,inactive: 0.082,inactive: 0.013,inactive: -0.012,inactive: 0.067,inactive: 0.003,inactive: -0.01,inactive: 0.014
PMPCB (UniProt O75439),inactive: 0.035,inactive: 0.025,inactive: -0.054,inactive: 0.089,inactive: 0.098,inactive: -0.04,inactive: 0.105,inactive: 0.046,active: 0.269,inactive: 0.053
PPIE (UniProt Q9UNP9),inactive: -0.084,inactive: 0.006,inactive: -0.019,inactive: -0.103,inactive: 0.029,inactive: 0,inactive: -0.034,inactive: 0.044,inactive: 0.08,inactive: 0.056
POLR2H (UniProt P52434),inactive: -0.02,inactive: 0.008,inactive: -0.021,inactive: 0.007,inactive: -0.054,inactive: 0.123,inactive: -0.033,inactive: -0.015,inactive: 0.043,inactive: 0.045

# Reprinted at random: 2 entries already listed, in no set order.
Target,log2 fold change [1],log2 fold change [2],log2 fold change [3],log2 fold change [4],log2 fold change [5],log2 fold change [6],log2 fold change [7],log2 fold change [8],log2 fold change [9],log2 fold change [10]
POGLUT1 (UniProt Q8NBL1),inactive: 0.009,inactive: 0.122,inactive: -0.001,inactive: 0.03,inactive: 0.024,inactive: -0.049,inactive: -0.022,inactive: -0.073,inactive: 0.048,inactive: -0.046
POU2F1 isoform 6 (UniProt P14859),inactive: 0.026,inactive: 0.11,inactive: -0.079,inactive: -0.048,inactive: -0.204,inactive: 0.06,inactive: 0.002,inactive: -0.005,inactive: -0.028,inactive: 0.088

# Reference: the supplement of paper PMC10849652
